Out of some 300,000 compounds screened, about 5,400 (1.8%) were called active. The inconclusive results got no clear call from the source; some entries with a clear call stand among them for comparison. Calls come from the whole dose curve; tested in HEK293 cells. Where the call is inconclusive, the potency comes from a doubtful curve fit.
test: qHTS for inhibitors of binding or entry into cells for Marburg Virus; settings: Marburg virus pseudotyped entry inhibition, cell reporter; activity change, negative = inhibition: at 37.8 µM (top of the series) unless noted
% is set by controls: 0 for no effect and ±100 for the full control effect; potency is the fitted concentration of half-maximal effect.

Compound	Potency	activity change, negative = inhibition
CCN1CCN(c2cc3c(cc2F)c(=O)c(C(=O)O)cn3C2CC2)CC1	inconclusive: 3.66 µM [activator, full curve, poor fit]	
COCCn1c(SCC(=O)NCCCN2CCCC2=O)nc2sc3c(c2c1=O)CCCC3		inactive: -5.26%
CCOC(=O)c1sc(NC(=O)c2sccc2C)cc1C	inconclusive: 13 µM [inhibitor, single point]	
COc1ccnc(Oc2ccc(Cl)cc2)c1C#N		inactive: -2.24% [at 46.1 µM]
CCOC(=O)CSC1=C(C#N)C(c2ccccc2OCC)C(C#N)C(=O)N1 (stereo not drawn)	inconclusive: 18.3 µM [inhibitor, partial curve, poor fit]	
COc1ccccc1COCC(O)CN(Cc1ccco1)Cc1ccccc1O (stereo not drawn)	inconclusive: 29.1 µM [inhibitor, partial curve, poor fit]	
CCN(CC)c1ccc(N=Cc2c(C)[nH]c3ccccc23)cc1	inconclusive: 35.5 µM [inhibitor, single point]	
Cc1ccc(C(=O)Nc2c(C(=O)NCc3ccc(Cl)cc3)sc3nc(C)cc(C)c23)cc1		inactive: 0.473% [at 46.1 µM]
O=C(CNc1n[nH]c(=O)[nH]c1=O)N/N=C/C1CC=CCC1 (stereo not drawn)		inactive: 9.22%
CC(=O)Oc1cccc(/C=c2\sc3nc(-c4ccco4)nn3c2=O)c1	inconclusive: 14.1 µM [inhibitor, single point]	
C=CCNC(=O)c1sc(-c2ccccc2)nc1C		inactive: 15.4% [at 46.1 µM]
O=C(N(CC1CCCCC1)C1=NCCCC1)C12CC3CC(CC(C3)C1)C2		inactive: -19.3%
COc1cn(-c2ccccc2)nc1C(=O)Nc1ccc(C)cc1	inconclusive: 22.4 µM [inhibitor, single point]	
CCOc1cc(/C=N/O)ccc1OCC(=O)Nc1cccc(C)c1		inactive: -1.04%
CC(C)N1C(=O)/C(=C\c2nc3ccccc3c(=O)[nH]2)c2ccccc21	inconclusive: 35.5 µM [inhibitor, single point]	
Cc1ccc(C2(c3noc(CN4CCC(c5ccncc5)CC4)n3)CCCC2)cc1	inconclusive: 35.5 µM [inhibitor, single point]	
COc1ccc(-c2csc3ncn(-c4ccccc4)c(=O)c23)cc1OC	inconclusive: 3.55 µM [activator, single point]	
Cn1c2c(c(=O)[nH]c1=O)C(c1cccc(O)c1)C1=C(N2)c2ccccc2C1=O (stereo not drawn)	inconclusive: 1.26 µM [inhibitor, full curve, poor fit]	
O=C(CSc1nc2ccccc2c(=O)n1CCCN1CCOCC1)Nc1ccc(Br)cc1	inconclusive: 35.5 µM [inhibitor, single point]	
O=C(Nc1ccccc1)N1CCSc2cc(Cl)ccc21	inconclusive: 20.6 µM [activator, single point]	
O=C(Nc1ccccn1)c1ccccc1	inconclusive: 0.891 µM [activator, full curve, poor fit]	
CC1(C)CC(n2c(NCCO)nc3c(c2=O)C2(CCCC2)Cc2ccccc2-3)CCO1 (stereo not drawn)	inconclusive: 29.1 µM [inhibitor, single point]	
Cc1onc(-c2c(F)cccc2Cl)c1C(=O)OCC(=O)Nc1c(C)n(C)n(-c2ccccc2)c1=O	inconclusive: 1.26 µM [activator, single point]	

Compound	Potency	activity change, negative = inhibition
COc1ccc(/C=C/C(=O)O/N=C(\N)c2ccccc2)cc1OC	inconclusive: 2.24 µM [activator, partial curve, poor fit]	
CCS(=O)(=O)c1nc2ccccc2n1Cc1ccccn1	inconclusive: 15.8 µM [inhibitor, single point]	
COc1ccc(CCNC(=O)CCc2ccc(S(=O)(=O)NCC(C)C)cc2)cc1OC	inconclusive: 6.31 µM [inhibitor, full curve, poor fit]	
CCn1c(CNC(=O)COc2ccc(C(C)C)cc2)nnc1SCC(=O)Nc1ccccc1	inconclusive: 29.1 µM [inhibitor, single point]	
CNC(=S)N/N=C/c1cn(Cc2ccc(C)cc2)c2ccccc12	inconclusive: 7.08 µM [inhibitor, partial curve]	
COc1ccc(-c2nn(-c3ccccc3)cc2CO)cc1	inconclusive: 15.8 µM [activator, partial curve, poor fit]	
O=C(c1ccc2c3c(cccc13)CC2)C1CCCN(CC2CC2)C1 (stereo not drawn)	inconclusive: 35.5 µM [inhibitor, single point]	
CCOC(=O)c1cnc(SCC(C)C)nc1N		inactive: -6.63%
O=C(O)c1cc(-c2c[nH]c3ccccc23)nc2ccc3ccccc3c12		inactive: -4.86% [at 46.1 µM]
CC(=O)Nc1ccc(Sc2ncnc3scc(-c4ccccc4)c23)cc1		inactive: -28.5%
Cc1ccc(NC(=O)CSC2=C(C#N)[C@H](c3ccco3)C3=C(CCCC3=O)N2)cc1	inconclusive: 12.6 µM [inhibitor, partial curve, poor fit]	
CCOC(=O)c1cccc(NC(=O)CN2C(=O)CC(C)(C)Sc3ccccc32)c1		inactive: -18.1% [at 46.1 µM]
O=C(CCC(=O)c1ccc(Cl)cc1)OCC(=O)c1ccccc1	inconclusive: 3.55 µM [activator, partial curve, poor fit]	
Cc1c(C)n(CCCN(C)C)c2ncnc(NCc3ccccc3)c12	inconclusive: 11.2 µM [inhibitor, single point]	
CCn1nc(C)cc1C(=O)N1CCCC(N(C)CCc2ccc(OC)c(OC)c2)C1 (stereo not drawn)		inactive: -3.73%
CC(=O)c1c(C)[nH]c(C(=O)CSc2nnc(C)s2)c1C		inactive: -1.11% [at 46.1 µM]
O=C(c1cnn2c(C(F)(F)F)cc(-c3ccco3)nc12)N1CCCc2ccccc21	inconclusive: 35.5 µM [inhibitor, single point]	
CCOC(=O)Nc1ccc(S(=O)(=O)Nc2nc(C)cc(C)n2)cc1	inconclusive: 6.51 µM [inhibitor, single point]	
CC(=O)Oc1ccc(-c2cccc(C(=O)N3CCCCC3)c2)cc1	inconclusive: 15.8 µM [activator, single point]	
CCN(Cc1cc2cc(C)ccc2[nH]c1=O)S(=O)(=O)c1ccccc1	inconclusive: 32.6 µM [inhibitor, single point]	
CC12CCC(=O)C=C1C(F)CC1C2C(O)CC2(C)C1CCC2(O)C(=O)CO (stereo not drawn)		inactive: -1.26% [at 46.1 µM]
COc1nc(Cc2ccc(Cl)cc2)nc2ccccc12	inconclusive: 5.62 µM [inhibitor, single point]	
CCN(CC)S(=O)(=O)c1cc(NC(=O)C(C)OC(=O)c2[nH]c(C)c(C(C)=O)c2C)ccc1C (stereo not drawn)	inconclusive: 35.5 µM [inhibitor, partial curve, poor fit]	

Retrieved one by one from above, 5 records:
Compound	Potency	activity change, negative = inhibition
CCOC(=O)Nc1ccc(S(=O)(=O)Nc2nc(C)cc(C)n2)cc1	inconclusive: 6.51 µM [inhibitor, single point]	
COc1ccc(/C=C/C(=O)O/N=C(\N)c2ccccc2)cc1OC	inconclusive: 2.24 µM [activator, partial curve, poor fit]	
CC(=O)Oc1ccc(-c2cccc(C(=O)N3CCCCC3)c2)cc1	inconclusive: 15.8 µM [activator, single point]	
CC(=O)Nc1ccc(Sc2ncnc3scc(-c4ccccc4)c23)cc1		inactive: -28.5%
CCN(CC)S(=O)(=O)c1cc(NC(=O)C(C)OC(=O)c2[nH]c(C)c(C(C)=O)c2C)ccc1C (stereo not drawn)	inconclusive: 35.5 µM [inhibitor, partial curve, poor fit]	

(next part)

Compound	Potency	activity change, negative = inhibition
Cc1c(N=Nc2c(O)n(Cc3ccccc3)c(=O)[nH]c2=O)c(=O)n(-c2ccccc2)n1C	inconclusive: 14.1 µM [inhibitor, single point]	
CCCCc1nnc(NC(=O)c2nc3nccc(C)n3n2)s1		inactive: 12.3% [at 14.2 µM]
Cc1c(C(=O)Nc2cnccn2)oc2ccccc12		inactive: -1.69%
O=S(=O)(Cc1cc(-c2ccccc2)no1)c1ccccc1	inconclusive: 6.31 µM [activator, single point]	
CC(=O)CSc1nc(N)c(C#N)c(-c2cccs2)c1C#N	inconclusive: 23.1 µM [inhibitor, partial curve]	
CCN1CCN(CCCOc2ccc(Cl)cc2Br)CC1	inconclusive: 20.6 µM [inhibitor, single point]	
COCCN(Cc1cn[nH]c1-c1ccc2cc(OC)ccc2c1)C(C)C	inconclusive: 0.708 µM [inhibitor, single point]	
COC(=O)c1cc(NC(=O)c2cc(C)oc2C)cc(C(=O)OC)c1	inconclusive: 0.73 µM [inhibitor, partial curve, poor fit]	
O=C(/C=C/c1ccc(Cl)cc1)Nc1cc(S(=O)(=O)N2CCOCC2)ccc1N1CCOCC1	inconclusive: 12.6 µM [inhibitor, partial curve]	
CCN1CCN(CC(=O)Nc2cc(C)on2)CC1		inactive: -6.98% [at 46.1 µM]
COc1ccc(C(C)C)cc1S(=O)(=O)NCCc1c(C)[nH]c2ccc(C)cc12	inconclusive: 35.5 µM [inhibitor, single point]	
COC(=O)C1=C(C)NC(C)=C(C(=O)OC)C1C(=O)OC1CCCCC1=O (stereo not drawn)	inconclusive: 31.6 µM [activator, single point]	
CC(=O)Nc1ccc(C(=O)OCC(=O)NCc2ccccc2)cc1	inconclusive: 11.2 µM [inhibitor, partial curve, poor fit]	
CCCCCC(=O)N/N=C/c1cccs1	inconclusive: 11.6 µM [activator, single point]	
CC(=O)N(C)/C=C1\Sc2ccccc2C1=O		inactive: 0%
CCOc1ccccc1-c1c2cc(O)c(=O)cc-2oc2cc(O)c(O)cc12	inconclusive: 35.5 µM [inhibitor, partial curve, poor fit]	
O=C(CC(SCc1ccco1)c1ccc(O)cc1)c1cccs1 (stereo not drawn)	inactive	
O=C(OCc1ccccc1)c1ccc(NCc2cc(O)ccc2O)cc1	inconclusive: 0.708 µM [inhibitor, full curve, poor fit]	
CN(Cc1ccc(OC(F)F)cc1)C(=O)c1cccc(S(=O)(=O)N2CCN(Cc3ccccc3)CC2)c1	inconclusive: 10 µM [inhibitor, partial curve, poor fit]	
CCc1ccc2nc(N(CCCN(C)C)C(=O)c3ccc(C(=O)c4ccccc4)cc3)sc2c1	inconclusive: 22.4 µM [inhibitor, single point]	
CC1Cc2ccccc2N1C(=O)Cn1nnc(-c2ccccc2NC(=O)C2CCC2)n1 (stereo not drawn)	inconclusive: 20.6 µM [inhibitor, partial curve]	
Nc1nc(NCCCN2CCOCC2)nc(Nc2cccc(F)c2)c1[N+](=O)[O-]	inconclusive: 35.5 µM [inhibitor, single point]	

Reference: PubChem BioAssay AID540276 (National Center for Advancing Translational Sciences (NCATS), 2011)
